Data taken from publication PMC5482063.
These are yes or no findings as the source states them, for the method shown.

The chains behind the UniProt entries cited, without tags or fusion partners.
UniProt Q96524: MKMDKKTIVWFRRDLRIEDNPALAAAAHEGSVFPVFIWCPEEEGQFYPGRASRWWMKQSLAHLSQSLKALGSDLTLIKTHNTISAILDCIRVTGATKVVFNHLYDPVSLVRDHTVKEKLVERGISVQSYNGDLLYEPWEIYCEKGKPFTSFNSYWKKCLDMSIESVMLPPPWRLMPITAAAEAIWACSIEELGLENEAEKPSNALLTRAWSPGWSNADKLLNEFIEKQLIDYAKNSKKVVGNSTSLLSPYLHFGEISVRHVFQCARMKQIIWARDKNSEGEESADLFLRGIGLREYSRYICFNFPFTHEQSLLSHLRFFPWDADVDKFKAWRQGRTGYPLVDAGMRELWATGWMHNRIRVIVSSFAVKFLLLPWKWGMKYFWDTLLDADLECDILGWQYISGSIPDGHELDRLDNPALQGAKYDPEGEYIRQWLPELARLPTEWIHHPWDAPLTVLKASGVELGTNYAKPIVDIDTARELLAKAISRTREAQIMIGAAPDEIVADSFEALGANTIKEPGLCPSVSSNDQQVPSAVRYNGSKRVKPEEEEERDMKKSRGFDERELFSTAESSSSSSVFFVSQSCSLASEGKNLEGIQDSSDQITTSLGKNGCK
UniProt Q9NZN5: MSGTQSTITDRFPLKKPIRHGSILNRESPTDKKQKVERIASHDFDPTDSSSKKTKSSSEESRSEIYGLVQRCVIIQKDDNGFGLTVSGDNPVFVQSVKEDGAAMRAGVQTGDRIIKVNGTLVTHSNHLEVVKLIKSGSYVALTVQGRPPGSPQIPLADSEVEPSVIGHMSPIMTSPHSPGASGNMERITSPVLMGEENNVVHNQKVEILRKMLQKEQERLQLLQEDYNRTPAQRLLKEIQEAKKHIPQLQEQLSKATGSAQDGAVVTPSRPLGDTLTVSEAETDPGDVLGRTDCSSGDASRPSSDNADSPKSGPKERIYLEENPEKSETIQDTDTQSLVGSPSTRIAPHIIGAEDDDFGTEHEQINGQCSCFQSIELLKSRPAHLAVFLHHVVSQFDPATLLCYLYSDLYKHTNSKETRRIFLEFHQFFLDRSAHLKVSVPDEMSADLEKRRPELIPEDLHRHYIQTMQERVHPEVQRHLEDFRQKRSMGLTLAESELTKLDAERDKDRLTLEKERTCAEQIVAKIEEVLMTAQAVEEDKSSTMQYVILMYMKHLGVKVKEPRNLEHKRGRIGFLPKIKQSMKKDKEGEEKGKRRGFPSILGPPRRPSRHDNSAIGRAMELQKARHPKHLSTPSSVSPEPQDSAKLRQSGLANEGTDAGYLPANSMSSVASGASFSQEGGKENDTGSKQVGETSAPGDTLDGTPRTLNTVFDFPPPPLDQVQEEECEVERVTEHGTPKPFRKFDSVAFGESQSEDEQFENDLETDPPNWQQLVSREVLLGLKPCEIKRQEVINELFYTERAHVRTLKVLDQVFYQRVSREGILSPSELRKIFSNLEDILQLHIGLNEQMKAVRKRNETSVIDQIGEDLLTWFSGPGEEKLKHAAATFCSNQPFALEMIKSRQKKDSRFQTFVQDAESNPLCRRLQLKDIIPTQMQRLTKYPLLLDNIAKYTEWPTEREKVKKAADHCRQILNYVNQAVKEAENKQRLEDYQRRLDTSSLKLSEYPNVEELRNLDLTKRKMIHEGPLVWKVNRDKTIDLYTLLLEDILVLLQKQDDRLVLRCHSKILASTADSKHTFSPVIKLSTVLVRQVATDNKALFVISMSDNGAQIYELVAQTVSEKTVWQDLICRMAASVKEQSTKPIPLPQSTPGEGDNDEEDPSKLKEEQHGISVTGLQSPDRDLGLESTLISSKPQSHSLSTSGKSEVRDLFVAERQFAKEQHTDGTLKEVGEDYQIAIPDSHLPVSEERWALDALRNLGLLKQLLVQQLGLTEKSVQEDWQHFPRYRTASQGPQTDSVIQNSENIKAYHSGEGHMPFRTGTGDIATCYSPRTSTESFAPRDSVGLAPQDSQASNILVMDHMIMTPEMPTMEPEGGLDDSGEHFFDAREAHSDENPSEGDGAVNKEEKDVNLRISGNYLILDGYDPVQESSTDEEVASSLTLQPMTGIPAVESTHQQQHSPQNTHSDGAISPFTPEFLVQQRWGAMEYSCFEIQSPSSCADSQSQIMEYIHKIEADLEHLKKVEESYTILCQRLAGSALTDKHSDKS
UniProt O15085: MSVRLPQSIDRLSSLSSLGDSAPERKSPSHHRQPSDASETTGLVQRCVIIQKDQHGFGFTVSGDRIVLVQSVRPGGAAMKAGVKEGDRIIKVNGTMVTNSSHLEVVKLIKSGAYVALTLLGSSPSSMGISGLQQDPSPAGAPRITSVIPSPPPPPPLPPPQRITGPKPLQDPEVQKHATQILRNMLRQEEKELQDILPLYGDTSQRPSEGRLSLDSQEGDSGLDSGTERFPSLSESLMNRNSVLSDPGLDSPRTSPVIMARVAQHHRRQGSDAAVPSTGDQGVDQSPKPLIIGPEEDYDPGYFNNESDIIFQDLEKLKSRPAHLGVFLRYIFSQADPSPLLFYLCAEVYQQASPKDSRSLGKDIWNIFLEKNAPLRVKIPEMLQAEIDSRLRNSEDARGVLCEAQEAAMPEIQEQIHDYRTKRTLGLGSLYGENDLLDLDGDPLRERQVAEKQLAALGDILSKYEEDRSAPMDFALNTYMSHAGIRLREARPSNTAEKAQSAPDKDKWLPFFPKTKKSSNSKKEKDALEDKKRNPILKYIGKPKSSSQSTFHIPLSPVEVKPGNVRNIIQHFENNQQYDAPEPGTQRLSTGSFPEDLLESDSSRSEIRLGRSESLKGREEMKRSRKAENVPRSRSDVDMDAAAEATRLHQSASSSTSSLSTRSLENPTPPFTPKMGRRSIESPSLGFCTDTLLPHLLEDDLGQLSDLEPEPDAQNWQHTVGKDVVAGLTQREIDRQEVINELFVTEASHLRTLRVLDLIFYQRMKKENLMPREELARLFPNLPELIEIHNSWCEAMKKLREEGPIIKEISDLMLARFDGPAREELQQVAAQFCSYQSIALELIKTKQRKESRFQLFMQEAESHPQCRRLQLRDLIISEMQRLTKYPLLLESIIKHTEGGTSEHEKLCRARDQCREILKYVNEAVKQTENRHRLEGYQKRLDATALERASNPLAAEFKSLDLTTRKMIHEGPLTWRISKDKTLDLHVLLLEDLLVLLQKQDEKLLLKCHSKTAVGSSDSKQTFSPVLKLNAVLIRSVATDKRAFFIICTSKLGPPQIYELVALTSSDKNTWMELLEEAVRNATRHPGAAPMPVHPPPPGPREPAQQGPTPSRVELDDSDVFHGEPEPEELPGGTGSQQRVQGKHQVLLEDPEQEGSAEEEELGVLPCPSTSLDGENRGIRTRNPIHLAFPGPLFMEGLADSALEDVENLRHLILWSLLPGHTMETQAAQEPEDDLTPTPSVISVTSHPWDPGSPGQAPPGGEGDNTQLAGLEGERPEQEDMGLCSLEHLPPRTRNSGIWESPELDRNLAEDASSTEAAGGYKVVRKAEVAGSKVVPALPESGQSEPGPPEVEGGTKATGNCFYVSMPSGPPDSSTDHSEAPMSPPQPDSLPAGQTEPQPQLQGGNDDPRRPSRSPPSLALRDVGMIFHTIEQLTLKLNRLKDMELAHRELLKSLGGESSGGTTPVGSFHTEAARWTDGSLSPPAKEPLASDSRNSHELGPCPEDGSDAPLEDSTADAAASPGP

Molecular target: Cry2 alone (mCherry-tagged Cryptochrome-2) (UniProt Q96524)
Experiment: membrane co-recruitment assay (TIRF microscopy); living COS-7 cells co-expressing mVenus-RhoGEF, the mCherry-tagged Cry2 construct and CIB-CAAX; whole-cell blue light; increase of the RhoGEF's fluorescence relative to that of optoPlexin (relative co-recruitment); only cells with at least 30% increase in optoPlexin signal; also with Erlotinib

Row | binding | Substance
1 | no binding | mVenus-Leukemia-associated RhoGEF (mVenus-LARG) (from UniProt Q9NZN5 1-1544)
2 | no binding | mVenus-PDZ-RhoGEF (mVenus-PRG) (from UniProt O15085 1-1522)
